Reference: patent US7445921B2, “Transglycosylation method and protein having transglycosylation activity” (priority 2004, dated 2008)
At least one compound was matched to its structure with a doubt left. No end group written: not given here.

System: recombinant endo-α-GalNAc-ase
Assay: Transglycosylation into polypeptide (HPLC, MALDI-TOF-MS)
Format: biochemical, Bifidobacterium longum JCM1217
Details: donor Galβ1-3GalNAcα1-pNP, sodium phosphate buffer pH 6, 37° C., one hour, HPLC product peak
Experimental: First, an enzymatic reaction of recombinant endo-α-GalNAc-ase purified in (7) was performed with Galβ1-3GalNAcα1-pNP as the sugar chain donor and peptide-T (see SEQ ID: 16), PAMP-12 (an amino acid sequence shown in SEQ ID: 17 with an amino group attached at C-end of the sequence) and bradykinin (see SEQ ID: 18) as the sugar chain acceptor.
That is, 10 μl of Galβ1-3GalNAcα1-pNP, 6 μl solution of each polypeptide as the acceptor and 1.5 μl of NaP (sodium phosphate) buffer (500 mM, pH 6) were mixed. The sugar chain donor, Galβ1-3GalNAcα1-pNP was used at a concentration of 10 mM, and for the peptide solution, each of 50 mM peptide-T, 50 mM bradykinin, and 10 mM PAMP-12 was used. A solution obtained by mixing was warmed up to 37° C., subsequently 2.5 μl of endo-α-GalNAc-ase (1.55 unit/ml) was added thereto, which was then incubated in a water bath at 37° C. for one hour. Subsequently, the enzyme was inactivated by boiling for 3 to 5 minutes.
Each reaction solution obtained in the aforementioned enzymatic reaction was applied to an HPLC analysis, and reaction products were analyzed and fractionated. […] UV (wavelength 214 nm) spectra were detected.
Detected results of each reaction solution for peptide-T, PAMP-12 and bradykinin are shown in FIGS. 5A, 5B and 5C, respectively.
The fractions fractionated by the aforementioned HPLC were analyzed by MALDI-TOF-MS. […]

RPPGFSPFR [bradykinin]
Transfer of disaccharide (Gal-GalNAc) to the peptide acceptor: disaccharide (Gal-GalNAc) had been transferred
